PubChem BioAssay AID652272, Drosophila RNAi Screening Center, 2013
Assay: 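Finding fly genes that regulate Hedgehog signal transduction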 (primary screen). Cell system: Drosophila clone 8 (Cl8) cells. Reagents: long dsRNA against Drosophila genes. Measurement: 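Firefly light from a Hedgehog-responsive ptc promoter reporter and Renilla reference light, both read on a plate reader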. Direction: firefly Hh reporter signal: higher = more ptc reporter light; Renilla reference signal: higher = more Renilla control light. Active means: 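Called a hit if the two-replicate mean z-score lies below -2 or above +3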. Meaning of the calls: active = hit: reporter lowered or raised; inactive = not a hit.
The deposit covers about 21,000 reagents; this is a random part of those with a known target gene and a result. Over the whole deposit, 503 (2.4%) are marked active. 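Raw plate light values, not normalised; calls rest on replicate z-scores that were not deposited; hits include reporter decreases as well as increases.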 Not stated in the record: the amount of reagent, the time to read-out.

What did the screen give for C15 [DRSC13495]?
firefly Hh reporter signal, replicate 1: 59147; firefly Hh reporter signal, replicate 2: 2.13e5; Renilla reference signal, replicate 1: 12608; Renilla reference signal, replicate 2: 4610; Outcome: inactive

What did the screen give for C15 [DRSC14169]?
firefly Hh reporter signal, replicate 1: 4.85e5; firefly Hh reporter signal, replicate 2: 1.53e5; Renilla reference signal, replicate 1: 26276; Renilla reference signal, replicate 2: 3155; Outcome: inactive

With rn (rotund) [DRSC12500], how do the results read?
firefly Hh reporter signal, replicate 1: 55792; firefly Hh reporter signal, replicate 2: 49372; Renilla reference signal, replicate 1: 2713; Renilla reference signal, replicate 2: 1701; Outcome: inactive

What did the screen give for rn (rotund) [DRSC12543]?
firefly Hh reporter signal, replicate 1: 92034; firefly Hh reporter signal, replicate 2: 86180; Renilla reference signal, replicate 1: 3363; Renilla reference signal, replicate 2: 2672; Outcome: inactive

What is on record for rn (rotund) [DRSC12544]?
firefly Hh reporter signal, replicate 1: 98548; firefly Hh reporter signal, replicate 2: 1.02e5; Renilla reference signal, replicate 1: 4449; Renilla reference signal, replicate 2: 3489; Outcome: inactive

For rn (rotund) [DRSC12546], how do the results read?
firefly Hh reporter signal, replicate 1: 78552; firefly Hh reporter signal, replicate 2: 1.08e5; Renilla reference signal, replicate 1: 3507; Renilla reference signal, replicate 2: 3157; Outcome: inactive

For mRpS14 (mitochondrial ribosomal protein S14) [DRSC19444], how do the results read?
firefly Hh reporter signal, replicate 1: 1.09e5; firefly Hh reporter signal, replicate 2: 1.48e5; Renilla reference signal, replicate 1: 4061; Renilla reference signal, replicate 2: 6311; Outcome: inactive

Which result is listed for tws (twins) [DRSC12767]?
firefly Hh reporter signal, replicate 1: 1.71e5; Renilla reference signal, replicate 1: 3526; Outcome: inactive

For tws (twins) [DRSC17092], what does the deposit list?
firefly Hh reporter signal, replicate 1: 1.07e5; firefly Hh reporter signal, replicate 2: 79091; Renilla reference signal, replicate 1: 3217; Renilla reference signal, replicate 2: 2226; Outcome: inactive

For CG10431 [DRSC02055], what was measured?
firefly Hh reporter signal, replicate 1: 74676; firefly Hh reporter signal, replicate 2: 35820; Renilla reference signal, replicate 1: 1957; Renilla reference signal, replicate 2: 4077; Outcome: inactive

What is on record for Best4 (Bestrophin 4) [DRSC10792]?
firefly Hh reporter signal, replicate 1: 93992; Renilla reference signal, replicate 1: 1589; Renilla reference signal, replicate 2: 2396; Outcome: inactive

What is on record for Vti1a (Vesicle transport through interaction with t-SNAREs 1a) [DRSC08563]?
firefly Hh reporter signal, replicate 1: 1.29e5; firefly Hh reporter signal, replicate 2: 54709; Renilla reference signal, replicate 1: 4740; Renilla reference signal, replicate 2: 1875; Outcome: inactive

For CG2938 [DRSC18243], what was measured?
firefly Hh reporter signal, replicate 1: 2.12e5; firefly Hh reporter signal, replicate 2: 1.34e5; Renilla reference signal, replicate 1: 4224; Renilla reference signal, replicate 2: 4106; Outcome: inactive

For CG7133 [DRSC11798], what does the deposit list?
firefly Hh reporter signal, replicate 1: 1.45e5; firefly Hh reporter signal, replicate 2: 1.11e5; Renilla reference signal, replicate 1: 5387; Renilla reference signal, replicate 2: 4362; Outcome: inactive

With CG5292 [DRSC15763], what does the deposit list?
firefly Hh reporter signal, replicate 1: 82848; firefly Hh reporter signal, replicate 2: 90025; Renilla reference signal, replicate 1: 2221; Renilla reference signal, replicate 2: 6026; Outcome: inactive

With Fife [DRSC08262], what was measured?
firefly Hh reporter signal, replicate 1: 1.36e5; firefly Hh reporter signal, replicate 2: 1.02e5; Renilla reference signal, replicate 1: 4896; Renilla reference signal, replicate 2: 3572; Outcome: inactive

With Fife [DRSC08409], what does the deposit list?
firefly Hh reporter signal, replicate 1: 64170; firefly Hh reporter signal, replicate 2: 64632; Renilla reference signal, replicate 1: 2434; Renilla reference signal, replicate 2: 4608; Outcome: inactive

For Fife [DRSC08499], what was measured?
firefly Hh reporter signal, replicate 1: 76966; firefly Hh reporter signal, replicate 2: 32984; Renilla reference signal, replicate 1: 2230; Renilla reference signal, replicate 2: 2514; Outcome: inactive

Which result is listed for NimC2 (Nimrod C2) [DRSC01881]?
firefly Hh reporter signal, replicate 1: 1.41e5; firefly Hh reporter signal, replicate 2: 51499; Renilla reference signal, replicate 1: 3467; Renilla reference signal, replicate 2: 4866; Outcome: inactive

For Gprk2 (G protein-coupled receptor kinase 2) [DRSC16682], how do the results read?
firefly Hh reporter signal, replicate 1: 49668; firefly Hh reporter signal, replicate 2: 27958; Renilla reference signal, replicate 1: 892; Renilla reference signal, replicate 2: 813; Outcome: inactive

Which result is listed for CG14014 [DRSC02345]?
firefly Hh reporter signal, replicate 1: 1.21e5; firefly Hh reporter signal, replicate 2: 65104; Renilla reference signal, replicate 1: 2327; Renilla reference signal, replicate 2: 7704; Outcome: inactive

For RhoGEF4 (Rho guanine nucleotide exchange factor 4) [DRSC11011], what does the deposit list?
firefly Hh reporter signal, replicate 1: 83605; firefly Hh reporter signal, replicate 2: 69500; Renilla reference signal, replicate 1: 3995; Renilla reference signal, replicate 2: 2976; Outcome: inactive

For Ak2 (Adenylate kinase 2) [DRSC04043], what does the deposit list?
firefly Hh reporter signal, replicate 1: 90379; firefly Hh reporter signal, replicate 2: 59815; Renilla reference signal, replicate 1: 1456; Renilla reference signal, replicate 2: 4736; Outcome: inactive

Which result is listed for Acp62F (Accessory gland protein 62F) [DRSC08136]?
firefly Hh reporter signal, replicate 1: 55719; firefly Hh reporter signal, replicate 2: 29577; Renilla reference signal, replicate 1: 1755; Renilla reference signal, replicate 2: 2240; Outcome: inactive

With Spn42Dd (Serpin 42Dd) [DRSC05024], what was measured?
firefly Hh reporter signal, replicate 1: 1.37e5; firefly Hh reporter signal, replicate 2: 82115; Renilla reference signal, replicate 1: 3098; Renilla reference signal, replicate 2: 6844; Outcome: inactive

With eIF4E5 (eukaryotic translation initiation factor 4E5) [DRSC10975], what does the deposit list?
firefly Hh reporter signal, replicate 1: 62336; firefly Hh reporter signal, replicate 2: 56245; Renilla reference signal, replicate 1: 3020; Renilla reference signal, replicate 2: 3616; Outcome: active

How did the screen score CG8630 [DRSC16441]?
firefly Hh reporter signal, replicate 1: 67691; firefly Hh reporter signal, replicate 2: 58321; Renilla reference signal, replicate 1: 2778; Renilla reference signal, replicate 2: 1712; Outcome: inactive
